Assay results taken from patent publication US20230220095A1 (ALETA BIOTHERAPEUTICS, published 2023).
No constants are given. Whether binding was seen depends on the method and setting. Some binding calls cover weakened binding; strength is not graded here. Tags and fused reporters may be left off the sequences shown.

The chains behind the UniProt entries cited, without tags or fusion partners.
UniProt P28907: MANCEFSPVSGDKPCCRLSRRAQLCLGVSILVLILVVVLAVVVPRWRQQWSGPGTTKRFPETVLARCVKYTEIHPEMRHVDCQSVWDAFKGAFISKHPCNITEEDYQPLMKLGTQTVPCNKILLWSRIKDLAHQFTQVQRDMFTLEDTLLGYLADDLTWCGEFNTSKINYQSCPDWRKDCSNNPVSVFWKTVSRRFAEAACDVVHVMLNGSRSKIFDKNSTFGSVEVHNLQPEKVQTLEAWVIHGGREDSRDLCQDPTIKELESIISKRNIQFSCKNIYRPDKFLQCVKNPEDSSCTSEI

Key:
[1] = target: CD38 on Daudi cells (human) (UniProt P28907); assay: flow cytometry on Daudi cells, anti-His-PE detection
[2] = target: CD38 on Daudi cells (human) (UniProt P28907); assay: flow cytometry on Daudi cells, supernatant titration
[3] = target: CD38 on Daudi cells (human) (UniProt P28907); assay: flow cytometry on Daudi cells, anti-BCMA-PE detection

Measured: binding

B1: BCMA-anti-CD38 fusion protein, construct #494 (BCMA ECD C-terminal to the anti-CD38 scFv, C-terminal His tag) (other)
chain: DIQMTQSPSSLSASVGDRVTITCRASQGIRSWLAWYQQKPEKAPKSLIYAASSLQSGVPSRFSGSGSGTDFTLTISSLQPEDFATYYCQQYNSYPLTFGGGTKVEIKGGGGSGGGGSGGGGSGGGGSQVQLVQSGAEVKKPGSSVKVSCKAFGGTFSSYAISWVRQAPGQGLEWMGRIIRFLGIANYAQKFQGRVTLIADKSTNTAYMELSSLRSEDTAVYYCAGEPGERDPDAVDIWGQGTMVTVSSGGGGSGGGGSGGGGSGGGGSMLQMAGQCSQNEYFDSLLHACIPCQLRCSSNTPPLTCQRYCNASVTNSVKGTNAHHHHHH
notes: also called A494
binds: all assays above
